Reference: patent US5679640A, “Immunosuppressant peptides” (priority 1995, dated 1997)
At least one peptide structure holds a part that was inferred or is arguable (an end, a ring closure or a residue). Some compounds share one wording; it may come from a single statement. Residues, ends and D or L forms follow the SMILES beside them.

Legend:
[1] = target: T1, DR4w4 (Homo sapiens, UniProt P01903+P01911, A100K/A169T/F76Y/I96L/K127E/L162R/M171V/N62H/P40V/Q125Y/R42H/S133A/S149N/S66Y/V115G/V209L/W38E); experiment: DR-peptide binding assay, DR4w4; conditions: Table 2, DR4w4, relative to HA = 1
T1 construct: EBV-transformed homozygous cell lines were used as a source of DR molecules; endogenous in cells; host or cells: Preiss or Beh (EBV-transformed human B cell lines, DR4 Dw4 homozygous); lysate purified on a monoclonal antibody LB3.1 column

[2] = target: T2, HLA-DR1 (Homo sapiens, UniProt P01903+P01911, A100R/D57E/F55L/F60I/F76Y/I96L/L162R/M171V/P40L/Q125E/R42F/V115G/Y59C); experiment: DR-peptide binding assay, DR1; conditions: Table 1, DR1, relative to HA = 1
T2 construct: EBV-transformed homozygous cell lines were used as a source of DR molecules; endogenous in cells; host or cells: LG-2 (EBV-transformed human B cell line, DR1 homozygous); lysate purified on a monoclonal antibody LB3.1 column

Compound	Relative Binding Affinity [1]	Relative Binding Affinity [2]
CC[C@H](C)[C@H](NC(=O)[C@@H](NC(=O)[C@H](CC(=O)O)NC(=O)[C@H](CCC(=O)O)NC(=O)[C@@H](N)Cc1ccc(O)cc1)C(C)C)C(=O)N1CCC[C@H]1C(=O)N[C@@H](CCC(=O)O)C(=O)NCC(=O)N[C@@H](Cc1c[nH]c2ccccc12)C(=O)N[C@@H](CCCCN)C(=O)N[C@@H](C)C(=O)N[C@@H](CC(=O)O)C(=O)N[C@H](C(=O)N[C@@H](CO)C(=O)N[C@@H](Cc1ccc(O)cc1)C(=O)N[C@@H](CO)C(=O)N[C@@H](C)C(=O)N[C@@H](CCCCN)C(=O)O)[C@@H](C)O [Lol p I Y224-240, reference compound] (H-YEDVIPEGWKADTSYSAK-OH)	+ (.51 to 1.0)	–
CC[C@H](C)[C@H](NC(=O)[C@H](CC(N)=O)NC(=O)[C@H](CCCCN)NC(=O)[C@H](Cc1ccccc1)NC(=O)[C@H](Cc1ccccc1)NC(=O)[C@H](Cc1c[nH]cn1)NC(=O)[C@@H](NC(=O)[C@@H](NC(=O)[C@@H]1CCCN1C(=O)[C@H](CC(N)=O)NC(=O)[C@H](CCC(=O)O)NC(=O)[C@H](CC(=O)O)NC(=O)[C@H](CCC(N)=O)NC(=O)[C@@H](NC(=O)[C@H](CCCNC(=N)N)NC(=O)CN)[C@@H](C)O)C(C)C)C(C)C)C(=O)N[C@H](C(=O)N[C@H](C(=O)N1CCC[C@H]1C(=O)N[C@@H](CCCNC(=N)N)C(=O)N[C@H](C(=O)N1CCC[C@H]1C(=O)N1CCC[C@H]1C(=O)N1CCC[C@H]1C(=O)O)[C@@H](C)O)[C@@H](C)O)C(C)C [MYE BA . . . 75-98, reference compound]	± (0.1 to .50)	± (0.1 to .50)
CC(C)C[C@H](NC(=O)[C@H](CCCNC(=N)N)NC(=O)[C@H](CCCNC(=N)N)NC(=O)[C@H](C)NC(=O)[C@H](CCCCN)NC(=O)[C@H](CC(C)C)NC(=O)[C@H](CCCNC(=N)N)NC(=O)[C@H](CCCNC(=N)N)NC(=O)[C@H](C)NC(=O)[C@H](CCCCN)NC(=O)[C@H](CC(C)C)NC(=O)[C@H](CCCNC(=N)N)NC(=O)[C@H](CCCNC(=N)N)NC(=O)[C@H](C)N)C(=O)N[C@@H](CCCCN)C(=O)O [lambda rep 14-18 3x, reference compound] (H-ARRLKARRLKARRLK-OH)	–	+ (.51 to 1.0)
CC[C@H](C)[C@H](NC(=O)[C@H](Cc1ccc(O)cc1)NC(=O)[C@H](Cc1ccccc1)NC(=O)[C@@H](N)CO)C(=O)N[C@@H](CC(C)C)C(=O)N[C@@H](C)C(=O)N[C@@H](Cc1c[nH]cn1)C(=O)N[C@H](C(=O)N[C@@H](CCC(=O)O)C(=O)N[C@@H](Cc1ccccc1)C(=O)N[C@H](C(=O)N1CCC[C@H]1C(=O)N[C@H](C(=O)N[C@@H](CCC(=O)O)C(=O)N[C@H](C(=O)N[C@@H](CC(=O)O)C(=O)O)[C@@H](C)O)[C@@H](C)O)[C@@H](C)O)[C@@H](C)O [α2-μglobulin 61-76, reference compound] (H-SFYILAHTEFTPTETD-OH)	- (less than 0.1)	- (less than 0.1)
CSCC[C@H](NC(=O)[C@H](C)NC(=O)[C@H](C)NC(=O)[C@H](C)NC(=O)[C@H](CC(C)C)NC(=O)[C@H](CCC(=O)O)NC(=O)[C@H](CS)NC(=O)[C@H](CCCNC(=N)N)NC(=O)CNC(=O)[C@H](Cc1ccccc1)NC(=O)[C@@H](NC(=O)[C@@H](N)CCCCN)C(C)C)C(=O)N[C@@H](CCCCN)C(=O)N[C@@H](CCCNC(=N)N)C(=O)N[C@@H](Cc1c[nH]cn1)C(=O)NCC(=O)N[C@@H](CC(C)C)C(=O)N[C@@H](CC(=O)O)C(=O)O [HEL 1-18, reference compound] (H-KVFGRCELAAAMKRHGLD-OH)	–	- (less than 0.1)
CSCC[C@H](NC(=O)[C@H](CC(C)C)NC(=O)[C@H](CCCCN)NC(=O)[C@@H](NC(=O)[C@@H](NC(=O)[C@@H](N)CC(=O)O)[C@@H](C)O)C(C)C)C(=O)N[C@@H](CCCCN)C(=O)NCC(=O)N[C@@H](CCC(N)=O)C(=O)N1CCC[C@H]1C(=O)N[C@@H](CCSC)C(=O)N[C@H](C(=O)N[C@@H](CCCNC(=N)N)C(=O)N[C@@H](Cc1ccccc1)C(=O)N[C@@H](CC(C)C)C(=O)N[C@@H](CC(C)C)C(=O)N[C@@H](CC(C)C)C(=O)N[C@H](C(=O)N[C@@H](CC(=O)O)C(=O)O)C(C)C)[C@@H](C)O [NASE 21-40, reference compound] (H-DTVKLMKGQPMTRFLLLVD-OH)	–	- (less than 0.1)
